Values as published with doi:10.1371/journal.pone.0140310, rounded.

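Human melanoma cell lines in 1,536-well plates were treated with two drugs together for 72 h, then fixed, stained and imaged. Values are the share of nuclei positive for cleaved PARP as a percentage of the same share in the DMSO control: 100 is the control level, higher means more apoptosis. Every drug was used at one fixed concentration, the higher of two screened. No replicate spread is given; individual values may be noisy. The marker varies much from line to line, for technical or biological reasons.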
An unselected part of the screen is shown.
An entry leaves out what has no value listed here.

First drug in all entries: fingolimod, 10 µM, CCCCCCCCc1ccc(CCC(N)(CO)CO)cc1

For CC1(C)NC(=O)N(c2ccc([N+](=O)[O-])c(C(F)(F)F)c2)C1=O at 5 µM the values were WM3619: 5310; UACC-62: 200; WM1745: 1430; RPMI-7951: 6920; COLO 800: 342.
For CCN(CC)CCNC(=O)c1c(C)[nH]c(/C=C2\C(=O)Nc3ccc(F)cc32)c1C at 2 µM the values were WM3619: 17700; UACC-62: 53.2; WM1745: 1540; RPMI-7951: 1260; COLO 800: 50.0.
For NC(=O)c1ccc(N(C(N)=O)c2c(F)cccc2F)nc1-c1ccc(F)cc1F at 2 µM the values were WM3619: 1520; SK-MEL-28: 3680; UACC-62: 172; WM1745: 811; RPMI-7951: 2130; COLO 800: 140.
For COc1cc2c(Oc3ccc4[nH]c(C)cc4c3F)ncnc2cc1OCCCN1CCCC1 at 2 µM the values were WM3619: 2820; SK-MEL-28: 1760; UACC-62: 160; WM1745: 1970; RPMI-7951: 2730; COLO 800: 76.3.
For Nc1ccn([C@@H]2O[C@H](CO)[C@@H](O)C2(F)F)c(=O)n1 at 0.002 µM the values were WM3619: 262; SK-MEL-28: 561; UACC-62: 289; WM1745: 180; RPMI-7951: 2260; COLO 800: 155.
For CC(C)C[C@H](NC(=O)[C@H](Cc1ccccc1)NC(=O)c1cnccn1)B(O)O at 0.005 µM the values were WM3619: 4810; SK-MEL-28: 1260; UACC-62: 492; WM1745: 1960; RPMI-7951: 17000; COLO 800: 62.5.
For COc1cc(N2CCC(N3CCN(C)CC3)CC2)ccc1Nc1ncc(Cl)c(Nc2ccccc2S(=O)(=O)C(C)C)n1 at 0.4 µM the values were WM3619: 3470; SK-MEL-28: 2560; UACC-62: 434; RPMI-7951: 1110; COLO 800: 257.
For Cn1cc(/C=C2\C(=O)Nc3cccnc32)c2ccccc21 at 2 µM the values were WM3619: 3490; UACC-62: 234; RPMI-7951: 1340; COLO 800: 379.
For Nc1cccc2c1CN(C1CCC(=O)NC1=O)C2=O (centres unmarked) at 5 µM the values were WM3619: 5150; SK-MEL-28: 1520; UACC-62: 443; WM1745: 718; RPMI-7951: 493; COLO 800: 214.
For Cn1cc(C2=C(c3cn(C4CCN(Cc5ccccn5)CC4)c4ccccc34)C(=O)NC2=O)c2ccccc21 at 4 µM the values were WM3619: 2430; SK-MEL-28: 4520; UACC-62: 388; WM1745: 1840; RPMI-7951: 829; COLO 800: 518.
For NCC(=O)Nc1ccc(-n2nc(C(F)(F)F)cc2-c2ccc3c(ccc4ccccc43)c2)cc1 at 5 µM the values were WM3619: 2160; UACC-62: 173; WM1745: 4200; RPMI-7951: 4300; COLO 800: 97.0.
For O=C(Nc1ccccc1)c1cc([N+](=O)[O-])ccc1Cl at 10 µM the values were WM3619: 8660; SK-MEL-28: 3030; UACC-62: 586; RPMI-7951: 2030; COLO 800: 869.
For Cn1c(=O)n(-c2ccc(C(C)(C)C#N)cc2)c2c3cc(-c4cnc5ccccc5c4)ccc3ncc21 at 0.02 µM the values were WM3619: 4280; UACC-62: 355; WM1745: 2060; RPMI-7951: 5030; COLO 800: 780.
For Cc1cn(-c2cc(NC(=O)c3ccc(C)c(Nc4nccc(-c5cccnc5)n4)c3)cc(C(F)(F)F)c2)cn1 at 1 µM the values were WM3619: 2130; UACC-62: 365; WM1745: 3920; RPMI-7951: 4180; COLO 800: 1150.
For COc1ccc(COc2ccc(Cc3cnc(N)nc3N)cc2OC)cc1 at 5 µM the values were WM3619: 15900; SK-MEL-28: 486; UACC-62: 412; RPMI-7951: 1300; COLO 800: 226.
For Cc1cc([N+](=O)[O-])ccc1NS(=O)(=O)c1cc(Cl)ccc1Cl at 5 µM the values were WM3619: 1470; SK-MEL-28: 1840; UACC-62: 692; RPMI-7951: 182; COLO 800: 186.
For CO[C@H]1C[C@@H]2CC[C@@H](C)[C@@](O)(O2)C(=O)C(=O)N2CCCC[C@H]2C(=O)O[C@H]([C@H](C)C[C@@H]2CC[C@@H](OCCO)[C@H](OC)C2)CC(=O)[C@H](C)/C=C(\C)[C@@H](O)[C@@H](OC)C(=O)[C@H](C)C[C@H](C)/C=C/C=C/C=C/1C at 0.1 µM the values were WM3619: 3680; SK-MEL-28: 1550; UACC-62: 416; WM1745: 399; RPMI-7951: 1210; COLO 800: 578.
For CS(=O)(=O)c1ccc(C(=O)Nc2ccc(Cl)c(-c3ccccn3)c2)c(Cl)c1 at 5 µM the values were WM3619: 3730; SK-MEL-28: 8940; UACC-62: 41.3; WM1745: 4010; RPMI-7951: 2190; COLO 800: 505.
For C[C@]1(O)C[C@@H](c2nc(-c3ccc4ccc(-c5ccccc5)nc4c3)c3c(N)nccn32)C1 at 2 µM the values were WM3619: 4040; SK-MEL-28: 3470; UACC-62: 299; WM1745: 2890; RPMI-7951: 4120; COLO 800: 346.
For Nc1nc(F)nc2c1ncn2[C@@H]1O[C@H](CO)[C@@H](O)[C@@H]1O at 1 µM the values were WM3619: 2300; SK-MEL-28: 2100; UACC-62: 59.9; WM1745: 2610; RPMI-7951: 2820; COLO 800: 242.
For C/C(O)=C(\C#N)C(=O)Nc1cc(Br)ccc1Br at 10 µM the values were WM3619: 2380; SK-MEL-28: 4810; UACC-62: 320; RPMI-7951: 4570; COLO 800: 148.
For CCCCCCCCCCCCCCCCCCOP(=O)([O-])OC1CC[N+](C)(C)CC1 at 2 µM the values were WM3619: 4000; SK-MEL-28: 1060; UACC-62: 266; WM1745: 1700; RPMI-7951: 3560; COLO 800: 45.1.
For CCCCCCCCCCCC1=C(O)C(=O)C=C(O)C1=O at 6 µM the values were WM3619: 1930; UACC-62: 958; RPMI-7951: 195; COLO 800: 702.
For Cc1cc(Nc2cc(N3CCN(C)CC3)nc(Sc3ccc(NC(=O)C4CC4)cc3)n2)n[nH]1 at 0.03 µM the values were WM3619: 3300; SK-MEL-28: 4860; UACC-62: 439; WM1745: 220; RPMI-7951: 5090; COLO 800: 387.

Some entries from above, unchanged:

* Nc1ccn([C@@H]2O[C@H](CO)[C@@H](O)C2(F)F)c(=O)n1 at 0.002 µM : WM3619: 262; SK-MEL-28: 561; UACC-62: 289; WM1745: 180; RPMI-7951: 2260; COLO 800: 155
* CCN(CC)CCNC(=O)c1c(C)[nH]c(/C=C2\C(=O)Nc3ccc(F)cc32)c1C at 2 µM : WM3619: 17700; UACC-62: 53.2; WM1745: 1540; RPMI-7951: 1260; COLO 800: 50.0